# Among all 580,000 compounds or so, about 6,100 (1.1%) were called active. The shares of active, inactive and inconclusive entries below differ from those in the screen. Calls come from the whole dose curve; as a rule, active = well fitted inhibition curve with a large enough effect; inconclusive = small, poorly fitted or top-dose-only effect, or another doubt; inactive = no such curve, though single readings can be large or run the other way. A potency beside an inconclusive call is a rough fit, not a confirmed value.
# By UniProt entry, the sequences of proteins in these tests, tags left out. Where a name states a change or a piece, a line headed by the entry shows the natural chain unless it says otherwise.
# UniProt P18054: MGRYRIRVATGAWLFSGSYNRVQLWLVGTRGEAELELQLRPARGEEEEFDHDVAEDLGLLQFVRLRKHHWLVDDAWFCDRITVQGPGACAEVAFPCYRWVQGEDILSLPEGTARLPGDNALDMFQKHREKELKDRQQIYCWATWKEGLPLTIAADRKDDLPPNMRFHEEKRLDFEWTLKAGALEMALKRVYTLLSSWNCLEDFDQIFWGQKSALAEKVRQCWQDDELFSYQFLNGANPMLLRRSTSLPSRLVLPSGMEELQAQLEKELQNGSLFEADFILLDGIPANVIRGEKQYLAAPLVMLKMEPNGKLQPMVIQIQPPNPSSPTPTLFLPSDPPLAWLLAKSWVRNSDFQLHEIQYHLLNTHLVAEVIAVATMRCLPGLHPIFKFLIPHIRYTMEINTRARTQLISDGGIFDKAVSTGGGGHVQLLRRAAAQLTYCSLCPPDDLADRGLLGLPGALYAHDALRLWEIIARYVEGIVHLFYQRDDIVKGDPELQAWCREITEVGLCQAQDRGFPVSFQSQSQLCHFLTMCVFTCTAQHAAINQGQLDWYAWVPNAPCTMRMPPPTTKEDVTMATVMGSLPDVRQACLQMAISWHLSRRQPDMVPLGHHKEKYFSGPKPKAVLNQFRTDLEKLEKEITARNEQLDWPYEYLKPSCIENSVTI
# Target: Polyunsaturated fatty acid lipoxygenase ALOX12 (Homo sapiens) (UniProt P18054)
# Assay: Primary qHTS assay for inhibitors of human arachidonate 12S-lipoxygenase (ALOX12): Round 2
# Details: purified 12hLO, xylenol orange hydroperoxide absorbance; activity change, negative = inhibition: at 108 µM (top of the series) unless noted
# Summary of the method: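 Purified human 12hLO at 150 nM in 25 mM Hepes, 0.01% Triton X-100, pH 7.0, preincubated 15 min at room temperature with compound. Reaction started with 40 uM arachidonic acid, 30 min at room temperature. Hydroperoxide measured by Fe-xylenol orange, 573/405 nm absorbance ratio.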
# % is set by controls: 0 for no effect and ±100 for the full control effect; potency is the fitted concentration of half-maximal effect.
Compound,Potency,"activity change, negative = inhibition"
CCN1C(=O)[C@H]2[C@@H](c3ccc(Cl)cc3)N3C(=O)CN(CC4CC4)C(=O)[C@@]3(Cc3ccccc3)[C@H]2C1=O,"inconclusive: 50.1 µM [inhibitor, partial curve, poor fit]",
O=C(NNc1nc2c(F)cccc2s1)C1COc2ccccc2O1 (stereo unspecified),,inactive: 16.1%
COc1ccc(-c2oc(=O)oc2-c2ccc(OC)c(OC)c2)cc1OC,"inconclusive: 39.8 µM [inhibitor, single point]",
CCCCNC(=O)c1cc(-c2ccc(OC)cc2)nc2ccccc12,"inconclusive: 50.1 µM [inhibitor, partial curve, poor fit]",
Oc1ccc(F)cc1-c1cc(-c2ccc3c(c2)OCCO3)n[nH]1,,inactive: 12.8%
CSc1cccc(NC(=O)c2ccc(CN3CCc4ccccc4C3)cc2)c1,,inactive: 0%
CCN(CC)CCCCNc1nc2cc(Cl)c(Cl)cc2nc1-c1ccc(-c2cccs2)s1,"inconclusive: 7.69 µM [inhibitor, full curve]",
CN(C)c1ccc(-c2nc3ccccn3c2/N=C/c2ccc(Br)cc2)cc1,,inactive: 14.6%
CCNC(=O)COC(=O)/C=C/c1cccc([N+](=O)[O-])c1,,inactive: -2.79%
COCCn1c(CSCc2ccc(Cl)cc2Cl)n[nH]c1=S,"inconclusive: 44.7 µM [inhibitor, partial curve, poor fit]",
CN(C)CCCn1c(=S)[nH]c2sc3c(c2c1=O)CCCC3,active: 14.1 µM,
N#Cc1cc(O)c(-n2nnc3ccccc32)cc1C#N,,inactive: -19.2%
O=C(/C(=C/c1ccsc1)C(=O)C(F)(F)F)c1ccccc1,"inconclusive: 28.2 µM [inhibitor, partial curve]",
COC(=O)c1sc(NC(=O)/C=C/c2ccccc2Cl)nc1C,"inconclusive: 35.5 µM [inhibitor, partial curve, poor fit]",
CCOC(=O)c1sc(N2C(=O)C(O)=C(C(=O)c3ccco3)C2c2cccc([N+](=O)[O-])c2)nc1C (stereo unspecified),active: 44.7 µM,
CCc1nncn1C1CCN(C(=O)c2cccc(Cl)c2)CC1,,inactive: 10.5%
COc1ccccc1Nc1cnc2ccc(-c3cccc(CO)c3)nn12,"inconclusive: 25.1 µM [inhibitor, full curve]",
CCNC(=O)c1noc(-c2ccc[nH]c2=O)n1,"inconclusive: 17.8 µM [inhibitor, partial curve, poor fit]",
COc1ccc(OCC2(C)COc3ccc(C(=O)N(C)c4ccccc4)cc3N2)cc1 (stereo unspecified),,inactive: -22.4% [at 176 µM]
CCOc1ccccc1NC(=O)CSc1ccc(-c2sc(C)nc2C)nn1,,inactive: 0%
COc1ccc(NC(=O)N(C)C[C@H]2Oc3ccc(NS(=O)(=O)c4cn(C)cn4)cc3C(=O)N([C@H](C)CO)C[C@@H]2C)cc1,"inconclusive: 22.4 µM [inhibitor, partial curve, poor fit]",

# Three compounds already listed, arranged by length of the SMILES, low to high:
Compound,Potency,"activity change, negative = inhibition"
CCCCNC(=O)c1cc(-c2ccc(OC)cc2)nc2ccccc12,"inconclusive: 50.1 µM [inhibitor, partial curve, poor fit]",
CCN(CC)CCCCNc1nc2cc(Cl)c(Cl)cc2nc1-c1ccc(-c2cccs2)s1,"inconclusive: 7.69 µM [inhibitor, full curve]",
CCN1C(=O)[C@H]2[C@@H](c3ccc(Cl)cc3)N3C(=O)CN(CC4CC4)C(=O)[C@@]3(Cc3ccccc3)[C@H]2C1=O,"inconclusive: 50.1 µM [inhibitor, partial curve, poor fit]",

# Source: PubChem BioAssay AID1671190 (National Center for Advancing Translational Sciences (NCATS), 2021)
